We go through one compound from US12023319B2, “Carboxylic acid aromatic amides” (priority 2016, dated 2024).

The subject of this data set is Male Sprague-Dawley rats. As to the kind of experiment: Rat STZ model for diabetic neuropathy (cold plate, warm plate, paw pressure, SNCV). The data set is classed as in vivo. As for the experimental part:
7. Rat STZ Model for Diabetic Neuropathy (Diabetic Neuropathic Pain, Diabetes Induced Nerve Degeneration)
The streptozotocin (STZ) diabetic rat is the most extensively studied animal model of diabetic neuropathy. The animals develop rapidly allodynia and hyperalgesia.
Male Sprague-Dawley rats (˜200 g) were used. They were rendered diabetic by intravenous injection of streptozotocin (55 mg/kg; day 0). Four days (day 4) later, diabetes was confirmed in STZ-injected rats by obtaining a blood sample from the tail vein and by measuring the glucose concentration using a glucose monitor. Only STZ-treated rats with plasma-glucose>260 mg/dl were deemed “diabetic”. The body weight of rats was recorded on daily basis from day 4 to 40.
72 animals were randomly assigned to different groups (12 rats per group).
[…] The treatment was performed on daily basis (twice a day: morning and afternoon) from day 4 until day 40. On the day where behavioral measures are performed, compound or vehicle was given 60 min prior the assessment. On the day where electrophysiological measure was performed, treatment was performed after the assessment.
For positive control regarding analgesia, morphine was dissolved in 0.9% NaCl, and administrated subcutaneously (s.c.) at the dose of 3 mg/kg 45 min prior the tests.
Experimental Plan: • Day 0: induction of diabetes by injection of STZ for all groups except the control group injected with the STZ vehicle • Day 4: glycemia monitoring for all groups and start of the treatment for all groups, except the morphine group. On day 4 rats received only the evening treatment. • Day 10: cold and warm allodynia test for all groups. Treatment is given 60 min prior to the assessment. On that day, the time between the morning and the evening treatment was reduced. • Day 21: Mechanical hyperalgesia test for all groups. Compound or vehicle was given 60 min prior to the assessment. On that day, the time between the morning and the evening treatment was reduced. • Day 22: Termination of rats in the morphine group. • Day 25-26: measurement of sensory nerve conduction velocity (SNCV). On that day, rats only received the evening treatment. • Day 39-40: measurement of sensory nerve conduction velocity (SNCV). On that day, rats only received the evening treatment. • Day 41: skin biopsy from all rats (histology processing and immunostaining of skin biopsy from 7 rats per group take about 4 weeks).
Cold Plate Test on Day 10
The animals were placed into a glass cylinder on a cold platform (0-1° C.). The latency before the first reaction (brisk move of the paw, little leaps) was recorded with a maximal time of 30 s.
Warm Plate Test on Day 10
The animals were placed into a glass cylinder on a hot plate adjusted to 42° C. The latency of the first reaction was recorded (paw lifting or licking, leaps or a jump to escape the heat). Results can be seen in FIG. 8 and table 6.
Paw pressure test is used to assess the hyperalgesia of animals in response to noxious mechanical stimulus. The nociceptive flexion reflex was quantified using the Randall-Selitto paw pressure device (Bioseb, France), which applies a linearly increasing mechanical force to the dorsum of the rat's hind paw. The mechanical nociceptive threshold is defined as the force in grams at which the rat withdraws its paw. The cut off pressure was set to 250 g.
Electrophysiological Measurements (SNCV)
Electrophysiological recordings of SNCV were performed using a Keypoint Electromyograph (EMG) (Medtronic, France). Rats were anaesthetized by intraperitoneal injection of 60 mg/kg ketamine chlorhydrate and 4 mg/kg xylazine. SNCV was recorded in the tail. Electrodes were placed as follows: The recording needle electrode was inserted near the base of the tail and stimulating needle electrode is placed about 50 mm away from the recording electrode towards the extremity of the tail. […]

Values joined by “and” are separate entries in the source; they are usually repeats but may differ in a detail not shown here. Equal entries are not always repeated.

In the case of `O=C(O)c1cc(NC(=O)C2(c3ccc(C(F)(F)F)cc3F)CC2)ccc1-c1cnn(C2CCC2)c1` [Example 3, 2-(1-Cyclobutyl-1H-pyrazol-4-yl)-5-[({1-[2-fluoro-4-(trifluoromethyl)phenyl]cyclopropyl}carbonyl)amino]benzoic acid], the Weight was 265 g (2×) and 250 g and 246 g and 271 g (2×) and 257 g (2×) and 252 g and 223 g and 248 g and 249 g (3 mg/kg, Day 10, individual animals, 3 mg/kg); 321 g and 314 g and 282 g and 354 g and 305 g and 300 g and 285 g and 264 g and 294 g and 293 g (2×) and 278 g (3 mg/kg, Day 21, individual animals, 3 mg/kg); 251 g and 253 g and 237 g and 233 g and 247 g and 234 g and 258 g and 235 g and 226 g and 246 g and 275 g (15 mg/kg, Day 10, individual animals, 15 mg/kg); 307 g and 308 g and 288 g and 282 g and 306 g and 273 g and 300 g and 278 g and 235 g and 274 g and 333 g (15 mg/kg, Day 21, individual animals, 15 mg/kg); 239 g and 240 g and 218 g and 227 g and 243 g and 230 g and 233 g and 267 g and 249 g and 221 g and 260 g and 229 g (60 mg/kg, Day 10, individual animals, 60 mg/kg); 286 g and 323 g and 241 g and 295 g and 303 g and 300 g and 270 g and 312 g and 289 g and 285 g and 324 g and 266 g (60 mg/kg, Day 21, individual animals, 60 mg/kg).
